Test results from PubChem BioAssay (NCI).
The hits were mostly taken out for another list; the other results follow. The source made the active and inactive calls. No stated cut-off is given here; in the data, active means growth inhibition above about 70%; inactive means the rest.

How the values were obtained:
[1] = NCI Yeast Anticancer Drug Screen. Data for the rad52 strain (AID 147);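 further: 0% = growth of vehicle-treated control cultures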; details: S. cerevisiae rad52 mutant growth inhibition, active compounds read high
Summary of the method: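 Genetically altered yeast (DNA damage repair defect) treated with compound; inhibition calculated relative to vehicle.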

[2] = NCI Yeast Anticancer Drug Screen. Data for the wt1 strain (AID 149);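 further: 0% = growth of vehicle-treated wt1 cultures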; details: S. cerevisiae wt1 strain (SPY 50644) growth inhibition, active compounds read high
Summary of the method: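 wt1 strain grown with compound or vehicle; inhibition taken from the growth difference.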

[3] = NCI Yeast Anticancer Drug Screen. Data for the rad50EPP+ strain (AID 151);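 further: 0% = growth of vehicle-treated control cultures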; details: S. cerevisiae rad50 mutant strain, active compounds read high
Summary of the method: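 Strain rad50EPP+; compound exposure; % growth inhibition vs vehicle.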

[4] = NCI Yeast Anticancer Drug Screen. Data for the mgt1 strain (AID 153); details: S. cerevisiae mgt1 mutant growth inhibition, active compounds read high
Summary of the method: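 Read-out: yeast growth inhibition vs vehicle control. Strain mgt1, drawn from a panel altered in DNA damage repair or cell cycle control.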

[5] = NCI Yeast Anticancer Drug Screen. Data for the rad14 strain (AID 159);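 further: 0% = growth of vehicle-treated control cultures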; details: S. cerevisiae rad14 strain growth inhibition, active compounds read high
Summary of the method: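 DNA repair-defective yeast, compound-exposed; % growth inhibition derived by comparison with vehicle-treated controls.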

[6] = NCI Yeast Anticancer Drug Screen. Data for the CLN2oe strain (AID 163);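 further: 0% = growth of vehicle-only control cultures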; details: S. cerevisiae CLN2oe strain, active compounds read high
Summary of the method: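 Strain altered in cell-cycle control, incubated with compound; growth compared to solvent-treated controls.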

[7] = NCI Yeast Anticancer Drug Screen. Data for the wt2 strain (AID 169);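 further: 0% = growth of vehicle-treated yeast cultures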; details: S. cerevisiae wt2 strain growth inhibition, active compounds read high
Summary of the method: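 Steps: yeast strain treated with compound; growth recorded; inhibition calculated relative to cultures given vehicle alone.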

[8] = NCI Yeast Anticancer Drug Screen. Data for the mlh1 strain (AID 171);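 further: 0% = growth of vehicle-treated control cultures of the same strain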; details: S. cerevisiae mlh1 strain growth inhibition, active compounds read high
Summary of the method: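 Yeast screen: mutant strain plus compound, growth scored against vehicle control wells.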

[9] = NCI Yeast Anticancer Drug Screen. Data for the sgs1 strain (AID 173);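 further: 0% = growth of vehicle-only control cultures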; details: S. cerevisiae sgs1 mutant, active compounds read high
Summary of the method: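 Inhibition of yeast growth served as the measure. The mutant strain was treated with each compound, and growth was normalised to cultures receiving vehicle alone.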

[10] = NCI Yeast Anticancer Drug Screen. Data for the rad18 strain (AID 177); details: S. cerevisiae rad18 mutant growth inhibition, active compounds read high
Summary of the method: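 Inhibition values reflect reduced yeast growth compared with vehicle-treated controls, using a strain engineered with a DNA damage repair defect.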

Measured: growth inhibition

N#CC(=Nc1ccc(F)cc1)Nc1ccc(F)cc1
inactive: [1]; at 1.2 µM -1% | [1]; at 3.7 µM -2% | [1]; at 11.0 µM 0% | [1]; at 33.0 µM 6% | [1]; at 100.0 µM 2% | [2]; at 1.2 µM -5% | [2]; at 3.7 µM -3% | [2]; at 11.0 µM -10% | [2]; at 33.0 µM -10% | [2]; at 100.0 µM -9% | [3]; at 1.2 µM 9% | [3]; at 3.7 µM 18% | [3]; at 11.0 µM 28% | [3]; at 33.0 µM 33% | [3]; at 100.0 µM 23% | [4]; at 1.2 µM -4% | [4]; at 3.7 µM -4% | [4]; at 11.0 µM -3% | [4]; at 33.0 µM 4% | [4]; at 100.0 µM -5% | [5]; at 1.2 µM -4% | [5]; at 3.7 µM -3% | [5]; at 11.0 µM -6% | [5]; at 33.0 µM 11% | [5]; at 100.0 µM 8% | [6]; at 1.2 µM 2% | [6]; at 3.7 µM -3% | [6]; at 11.0 µM 3% | [6]; at 33.0 µM 12% | [6]; at 100.0 µM 12% | [7]; at 1.2 µM -2% | [7]; at 3.7 µM -2% | [7]; at 11.0 µM -4% | [7]; at 33.0 µM 1% | [7]; at 100.0 µM -2% | [8]; at 1.2 µM -1% | [8]; at 3.7 µM -6% | [8]; at 11.0 µM -5% | [8]; at 33.0 µM 1% | [8]; at 100.0 µM -1% | [9]; at 1.2 µM -4% | [9]; at 3.7 µM -5% | [9]; at 11.0 µM -5% | [9]; at 33.0 µM 18% | [9]; at 100.0 µM 7% | [10]; at 1.2 µM -3% | [10]; at 3.7 µM -7% | [10]; at 11.0 µM -8% | [10]; at 33.0 µM 1% | [10]; at 100.0 µM -2%

CCOC1c2cc3c(cc2C(c2cc(OC)c(OC)c(OC)c2)C2C(=O)OCC12)OCO3 (stereo not given)
inactive: [1]; at 1.2 µM -1% | [1]; at 3.7 µM -2% | [1]; at 11.0 µM -3% | [1]; at 33.0 µM -5% | [1]; at 100.0 µM 21% | [2]; at 1.2 µM -2% | [2]; at 3.7 µM -2% | [2]; at 11.0 µM -5% | [2]; at 33.0 µM -4% | [2]; at 100.0 µM -2% | [4]; at 1.2 µM -1% | [4]; at 3.7 µM 2% | [4]; at 11.0 µM -1% | [4]; at 33.0 µM -5% | [4]; at 100.0 µM 32% | [5]; at 1.2 µM -4% | [5]; at 3.7 µM -2% | [5]; at 11.0 µM -2% | [5]; at 33.0 µM -7% | [5]; at 100.0 µM 25% | [6]; at 1.2 µM -14% | [6]; at 3.7 µM -12% | [6]; at 11.0 µM -17% | [6]; at 33.0 µM -22% | [6]; at 100.0 µM 42% | [7]; at 1.2 µM -7% | [7]; at 3.7 µM -4% | [7]; at 11.0 µM -3% | [7]; at 33.0 µM -3% | [7]; at 100.0 µM 39% | [8]; at 1.2 µM -2% | [8]; at 3.7 µM -4% | [8]; at 11.0 µM -3% | [8]; at 33.0 µM -2% | [8]; at 100.0 µM 54% | [9]; at 1.2 µM -2% | [9]; at 3.7 µM -2% | [9]; at 11.0 µM -3% | [9]; at 33.0 µM -2% | [9]; at 100.0 µM 51% | [10]; at 1.2 µM -2% | [10]; at 3.7 µM -1% | [10]; at 11.0 µM 4% | [10]; at 33.0 µM -1% | [10]; at 100.0 µM 37%

CC/C(C)=N/Nc1ccc([N+](=O)[O-])cc1[N+](=O)[O-]
inactive: [1]; at 1.2 µM -1% | [1]; at 3.7 µM 2% | [1]; at 11.0 µM 4% | [1]; at 33.0 µM 0% | [1]; at 100.0 µM 5% | [2]; at 1.2 µM -1% | [2]; at 3.7 µM -3% | [2]; at 11.0 µM -2% | [2]; at 33.0 µM -3% | [2]; at 100.0 µM -3% | [3]; at 1.2 µM -1% | [3]; at 3.7 µM 4% | [3]; at 11.0 µM 14% | [3]; at 33.0 µM 10% | [3]; at 100.0 µM 37% | [4]; at 1.2 µM -5% | [4]; at 3.7 µM -1% | [4]; at 11.0 µM -3% | [4]; at 33.0 µM -2% | [4]; at 100.0 µM -3% | [5]; at 1.2 µM -2% | [5]; at 3.7 µM 1% | [5]; at 11.0 µM 5% | [5]; at 33.0 µM 0% | [5]; at 100.0 µM 3% | [6]; at 1.2 µM -2% | [6]; at 3.7 µM -3% | [6]; at 11.0 µM -1% | [6]; at 33.0 µM -3% | [6]; at 100.0 µM -10% | [7]; at 1.2 µM -2% | [7]; at 3.7 µM -11% | [7]; at 11.0 µM -3% | [7]; at 33.0 µM -4% | [7]; at 100.0 µM -6% | [8]; at 1.2 µM -4% | [8]; at 3.7 µM -1% | [8]; at 11.0 µM 0% | [8]; at 33.0 µM -3% | [8]; at 100.0 µM 7% | [9]; at 1.2 µM -16% | [9]; at 3.7 µM 5% | [9]; at 11.0 µM -3% | [9]; at 33.0 µM -8% | [9]; at 100.0 µM 13%

COc1ccc(NC(=O)c2ccccc2Cl)cc1
inactive: [1]; at 1.2 µM -11% | [1]; at 3.7 µM 1% | [1]; at 11.0 µM 3% | [1]; at 33.0 µM 4% | [1]; at 100.0 µM 2% | [2]; at 1.2 µM -3% | [2]; at 3.7 µM -2% | [2]; at 11.0 µM -2% | [2]; at 33.0 µM -3% | [2]; at 100.0 µM -3% | [3]; at 1.2 µM -1% | [3]; at 3.7 µM 5% | [3]; at 11.0 µM 9% | [3]; at 33.0 µM 15% | [3]; at 100.0 µM 23% | [4]; at 1.2 µM -4% | [4]; at 3.7 µM -3% | [4]; at 11.0 µM -2% | [4]; at 33.0 µM -5% | [4]; at 100.0 µM 32% | [5]; at 1.2 µM -3% | [5]; at 3.7 µM -4% | [5]; at 11.0 µM -1% | [5]; at 33.0 µM -1% | [5]; at 100.0 µM -1% | [6]; at 1.2 µM -7% | [6]; at 3.7 µM 0% | [6]; at 11.0 µM -5% | [6]; at 33.0 µM -5% | [6]; at 100.0 µM -4%
